From patent US20030190322A1 (priority 2000, published 2003) come the findings set out here.

A short description of this series: peptide made by a vendor. The following applies: whole synthesis.

Consider Ac-CDGAVQPDGGQPAVRNER-NH2, for which the “purity (crude or final not stated)” value was “purity more or about 95%”.
